Data as given in PMC9962204.
These are yes or no findings as the source states them, for the method shown. Some binding calls cover weakened binding; strength is not graded here. Where a sequence is shown, tags or fusion partners need not be part of it.

B1: Selenium-binding protein 1 (AtSBP1), Gal4 activation domain fusion in pGADT7 (protein, UniProt O23264 1-490)
chain: MATETEVVAPVTVSNGGSKGCCKYGGPGYATPLAAMSGPSEKLIYVTAVYTGTGIDKPDYLATVDVDPSSPSYSSVIHRLPMPFVGDELHHSGWNSCSSCHGDASVDRRYLVLPSLISGRIYAIDTKENPRAPSLYKYVDPKEIADKTGLAFPHTAHCLATGEILVSCLGDEEGNAKGNGFLLLDSDFNIKNRWEKPGHSPLYGYDFWYQPRHKTMISTSWGAPKAFSKGFNLQHVADGLYGSHLHVYSWPGGEIKQLIDLGPTGLLPLEIRFLHDPSKDTGFVGSALSSNMIRFFKNSDETWSHEVVISVKPLKVENWILPEMPGLITDFLISLDDRFIYFVNWLHGDIRQYNIEDPKNPVLTGQIWVGGLLQKGSPVKAVGEDGNTFQFEVPQIKGKSLRGGPQMIQLSLDGKRLYATNSLFSAWDRQFYPEIMEKGSHIIQIDVDTEKGGLTINPDFFVDFGDEPDGPSLAHEMRYPGGDCTSDIWI
B2: Selenium-binding protein 2 (AtSBP2), Gal4 activation domain fusion in pGADT7 (protein, UniProt Q93WN0 1-487)
chain: MATETVLATAVSNGKSKGCCKSGPGYATPLAAMAGPREKLIYVTALYSGTGRDKPDYLATVDVDPSSPTFSSVIHRLKMPYIGDELHHTGWNSCSSCHGDASADRRYLVLPGLISGRIYAIDTKTDPKAPSLYKVVEPKEIAEKTGLAFPHTSHCLASGDMLVSCLGDKEGNAKGNGFLLLDSDFNVKSRWDKPGHGPLFGYDFWYQPRFKTMISTSWGAPKAFSKGFNLQHVADGLYGSHLHIYQWPEGEMKQIIDLGNTGLLPLEIRFLHDPSKDTGYVGSALSSNMIRFFKNSDDTWSHEVVISVKPLKVENWILPEMPGLITDFLISLDDRFFYFVNWLHGDIRQYNIEDPKNPVLTGQIWVGGLLQKGSPYKAVGEDGNTYQFDVPQIKGKSLRAGPQMIQLSLDGKRLYATNSLFSAWDRQFYPEIMEKGSHIIQIDVDTDKGGLTLNPDFFVDFGDEPDGPALAHEMRYPGGDCTSDIWI
B3: Selenium-binding protein 3 (AtSBP3), Gal4 activation domain fusion in pGADT7 (protein, UniProt Q9LK38 1-480)
chain: MEAAMNNHDGDCCKSGPGYATPLLAMSGPREKLIYVAAIYTGTGQAKPDYLATVDVEPSSSTYSSVIHRLPMPYLEDELHHSGWNSCSSCYGDSSCERRYLILPSLLSGRIYVIDTKTNPREPSLHKFVDPAEVLEKTGLAYPHQPHCLASGDVLVSCLGDEDGNAEGSGFLLLDSEFNIKGRWEKDGNSPLYGYDFWYQPRHKTMISTSWGAPAAFTKGFDLKDVSDGLYGKHLHVYSWPQGELKQILDLGDTGLLPLEVRFLHEPDKATGFAGCALSSTLVRFFKNDDETWSHEVAISVEPLKVENWILPEMPGLITDFLISLDDRFLYCSNWLHGDIRQYNIEDPKTPVLTGQIHVGGLVQKGSLVLALGEEGKAFQFDVPKIKGQRLRGGPQMFQLSLDGKRLYVTNSLFSVWDRQFYPELVEKGSHMLQIDVDTDKGGLSINPNFFVDFGTEPDGPSLAHEMRYPGGDCTSDIWV

These binders were tested against T1, AtSAH7 (allergen, Ole e 1 domain-containing family), Gal4 DNA-binding domain fusion in pGBKT7 (Arabidopsis thaliana) (UniProt Q9SZY5) (assay: two-hybrid; AtSAH7 in pGBKT7 (BD) against AtSBP1, AtSBP2, AtSBP3 and AtSBP1 deletions in pGADT7 (AD); S. cerevisiae Y2H Gold, co-transformed; growth on SD-Leu-Trp-His-Ade; more than 5 independent colonies).
T1 sequence: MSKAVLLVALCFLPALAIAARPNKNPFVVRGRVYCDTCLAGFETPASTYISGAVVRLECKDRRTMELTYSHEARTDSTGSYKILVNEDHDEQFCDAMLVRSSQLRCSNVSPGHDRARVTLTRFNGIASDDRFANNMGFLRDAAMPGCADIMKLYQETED
With B1 the binding was “binds”.
For B2, the binding was “no binding”.
For B3, the binding was “no binding”.
